From PubChem BioAssay AID493027 (The Scripps Research Institute Molecular Screening Center, 2011)
Where “and” joins values, the source holds several entries; their conditions need not be identical. Equal values may be shown once. Among all 2,000 compounds or so, about 45 (2%) were called active.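 The calls were made as follows: active = inhibition above the screen-wide mean inhibition plus 3 SD (cut at about 44% in these data); inactive = the rest.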 The list shows a part of the results.

Sequences of proteins named here, by UniProt entry; tags and fusion partners are left off. A change or cut given only in a name is not applied to a line headed by its entry.
UniProt O60240: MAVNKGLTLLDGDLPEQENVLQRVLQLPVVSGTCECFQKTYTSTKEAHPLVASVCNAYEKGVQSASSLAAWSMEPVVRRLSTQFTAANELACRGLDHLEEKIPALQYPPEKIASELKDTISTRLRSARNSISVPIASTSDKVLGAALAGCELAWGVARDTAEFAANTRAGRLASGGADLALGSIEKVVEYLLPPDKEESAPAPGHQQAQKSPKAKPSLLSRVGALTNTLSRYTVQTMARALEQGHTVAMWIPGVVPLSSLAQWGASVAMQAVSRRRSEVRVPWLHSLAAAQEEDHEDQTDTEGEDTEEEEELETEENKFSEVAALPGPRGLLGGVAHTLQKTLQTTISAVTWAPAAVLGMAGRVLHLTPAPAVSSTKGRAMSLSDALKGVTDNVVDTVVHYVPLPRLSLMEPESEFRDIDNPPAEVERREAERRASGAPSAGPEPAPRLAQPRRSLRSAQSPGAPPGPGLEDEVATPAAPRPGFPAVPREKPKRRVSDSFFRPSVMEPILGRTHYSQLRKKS
UniProt Q8WTS1: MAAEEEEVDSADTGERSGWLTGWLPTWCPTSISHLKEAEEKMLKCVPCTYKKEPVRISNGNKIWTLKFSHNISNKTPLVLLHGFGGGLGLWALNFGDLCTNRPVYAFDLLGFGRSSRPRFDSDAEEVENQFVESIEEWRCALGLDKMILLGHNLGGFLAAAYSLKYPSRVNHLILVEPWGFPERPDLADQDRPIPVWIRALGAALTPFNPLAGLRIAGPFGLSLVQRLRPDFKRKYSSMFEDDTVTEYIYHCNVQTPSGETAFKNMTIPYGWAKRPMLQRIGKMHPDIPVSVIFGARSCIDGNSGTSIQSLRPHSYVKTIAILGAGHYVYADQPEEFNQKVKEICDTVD

Target: Perilipin-1 (Homo sapiens) + 1-acylglycerol-3-phosphate O-acyltransferase ABHD5 (Homo sapiens) (UniProt O60240+Q8WTS1)
Assay: ABHD5-PLIN1 interaction inhibitors, pilot screen, cell lysate, split luciferase complementation, luminescence, NIH validation set (AID 493027);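 also: 0% = DMSO wells with the 100% control not disclosed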
Conditions: split G. princeps luciferase complementation, 4 h; at 7.9 µM, stronger effect = higher value

SMILES	inhibition
CCN(CC)C(=O)c1sc(NC(=O)c2c(OC)cccc2OC)c(C#N)c1C	inactive: -10.4%
O=C(O)/C=C/c1cnc[nH]1	inactive: -7.51%
NCc1ccccc1COc1ccccc1	inactive: 0.98%
CC1COc2c(N3CCN(C)CC3)c(F)cc3c(=O)c(C(=O)O)cn1c23 (stereo not given)	inactive: -8.51%
C[C@H]1O[C@H]1P(=O)(O)O	inactive: 2.43%
COc1ccc2[nH]cc(CCNC(=O)C3CCCNC3=O)c2c1 (stereo not given)	inactive: -10.1%
CCOC(=O)c1ccc(N2C(=O)C(CC(N)=O)N(CCc3ccc(OC)c(OC)c3)C2=S)cc1 (stereo not given)	inactive: 6.04%
CN(C)[C@@H]1C(=O)C(C(N)=O)=C(O)[C@@]2(O)C(=O)C3=C(O)c4c(O)ccc(Cl)c4[C@@H](O)[C@H]3C[C@@H]12	inactive: -5.77%
CC(C)(C)C(=O)NC(=S)NNC(=O)c1ccncc1	inactive: -14%
OCCN(CCO)c1ccc2ccccc2c1	inactive: -12.1%
CN1C(=O)C(O)(CC(=O)/C=C/C=C/c2ccccc2)c2ccccc21 (stereo not given)	inactive: 5.93%
Cn1cc(C2N3CC4(C)CN2CC(C)(C3)C4=O)c2ccccc21 (stereo not given)	inactive: -7.09%
CC(=O)OCC[N+](C)(C)C	inactive: -10.6% and inactive: -5.65%
Cn1c(=O)c(C(=O)NCCO)c(O)c2ccccc21	inactive: -5.11%
CC[n+]1ccc2cc(OC)c(OC)cc2c1Cc1ccc(OC)c(OC)c1	inactive: -12.6%
O=C(/C=C/c1ccc2c(c1)OCO2)c1ccccn1	active: 51.3%
COc1cc(/C=C/C(=O)CC(=O)/C=C/c2ccc(O)c(OC)c2)ccc1O	active: 50.4%
CC1(C)C(C=C(Cl)Cl)C1C(=O)N1CCN(Cc2ccccc2)CC1 (stereo not given)	inactive: -10.6%
CNC(=O)Oc1ccc2c(c1)[C@]1(C)CCN(C)[C@@H]1N2C	inactive: -15.5%
CC(C)CN1CCN(Cc2cccn2-c2ccccn2)CC1CCO (stereo not given)	inactive: -3.48%
CCC(=O)c1ccc(OCc2ccc(C(=O)OC)cc2)cc1	inactive: -4.79%
CCOC(=O)N1c2ccccc2C=CC1OCC (stereo not given)	inactive: 1.73%
COc1cccc(OCC(O)CO)c1 (stereo not given)	inactive: -6.76%
NC(CO)C(=O)NNCc1ccc(O)c(O)c1O (stereo not given)	inactive: -7.59%
CN(C)CCCN1c2ccccc2CCc2ccccc21	inactive: -4.72%

SMILES	inhibition
COc1ccc2cc(C(=O)OC(C)C)sc(=O)c2c1OC	inactive: 3.53%
CC12CN3CC(C)(CN(C1)C3c1ccc(Cl)cc1Cl)C2=O (stereo not given)	inactive: -6.26%
Cc1cc(O)c(C(=O)Cc2csc(C)n2)c(O)c1	inactive: -0.56%
O=c1[nH]cnc2[nH]ncc12	inactive: 3.56%
CN(C)C(=O)Oc1cccc([N+](C)(C)C)c1	inactive: -7% and inactive: -2.24%
CN1CCC(OC(c2ccccc2)c2ccccc2)CC1	inactive: -7.52%
CCOc1ncnc2c1[nH]c1ccccc12	inactive: -0.24%
C[n+]1ccccc1/C=N/O	inactive: -15% and inactive: -9.06%
COc1ccc(CN2CCCCC2C(=O)Nc2ccc(OC)c(OCC(C)C)c2)cc1OC (stereo not given)	inactive: -7.15%
Cc1cccc(Nc2ccccc2C(=O)O)c1C	inactive: -6.43%
CCC(C)n1ncn(-c2ccc(N3CCN(c4ccc(OCC5COC(Cn6cncn6)(c6ccc(Cl)cc6Cl)O5)cc4)CC3)cc2)c1=O (stereo not given)	inactive: 6.51%
CNCCCN1c2ccccc2CCc2ccccc21	inactive: -10.1%
O=C1CC(c2ccc(F)cc2)Cc2nc(NCC3CCCO3)ncc21 (stereo not given)	inactive: -8.75%
COc1cc(OC)c(-c2nc3cnccc3n2C)cc1OC	inactive: -12.2%
CCCCCCCC(=O)OCC(=O)[C@@]1(O)CC[C@H]2[C@@H]3CCC4=CC(=O)CC[C@]4(C)[C@H]3[C@@H](O)C[C@@]21C	inactive: -5.24%
CC1(C)S[C@@H]2[C@H](NC(=O)Cc3ccccc3)C(=O)N2[C@H]1C(=O)O	inactive: -1.81%
Cc1cc(=O)c2c(O)c(O)ccc2o1	inactive: -5.04%
COc1ccccc1OCC(=O)O	inactive: -2.36%
CCCCC/C=C\C[C@H](O)/C=C/c1cccc(C[C@H](O)CCCCO)n1	active: 57.6%
Cc1ccc2c(c1)C(O)(CC(=O)/C=C/C=C/c1ccccc1)C(=O)N2 (stereo not given)	inactive: 16.4%
COc1ccc2c(c1)[nH]c1c(=O)n(Cc3ccccn3)cnc12	inactive: -5.21%
Cn1c(=O)[nH]c(=O)c2c1nc(NCc1ccco1)n2CCCc1ccccc1	inactive: -8.69%
CC1(C)CC(=O)c2cnc(NC(=O)C3CCCC3)nc2C1	inactive: -3.78%
COc1ccc(-n2cc(CNCc3cccnc3)c(-c3cccc(F)c3)n2)cc1	inactive: -5.39%
Cn1c(=O)c2c(ncn2CCO)n(C)c1=O	inactive: -4.77%

A second format for part of the listing above:
SMILES | inhibition
CN(C)[C@@H]1C(=O)C(C(N)=O)=C(O)[C@@]2(O)C(=O)C3=C(O)c4c(O)ccc(Cl)c4[C@@H](O)[C@H]3C[C@@H]12 | inactive: -5.77%
CC(C)(C)C(=O)NC(=S)NNC(=O)c1ccncc1 | inactive: -14%
OCCN(CCO)c1ccc2ccccc2c1 | inactive: -12.1%
CN1C(=O)C(O)(CC(=O)/C=C/C=C/c2ccccc2)c2ccccc21 (stereo not given) | inactive: 5.93%
